The record followed here is publication PMC11327102.

These are yes or no findings as the source states them, for the method shown. In cells and extracts the contact can be indirect. Some binding calls cover weakened binding; strength is not graded here. Tags and fused reporters may be left off the sequences shown.

The test concerns the target T1, Myc-SCLY (selenocysteine lyase) (not stated (human or mouse cDNA cloned)) (UniProt Q96I15).
T1 sequence: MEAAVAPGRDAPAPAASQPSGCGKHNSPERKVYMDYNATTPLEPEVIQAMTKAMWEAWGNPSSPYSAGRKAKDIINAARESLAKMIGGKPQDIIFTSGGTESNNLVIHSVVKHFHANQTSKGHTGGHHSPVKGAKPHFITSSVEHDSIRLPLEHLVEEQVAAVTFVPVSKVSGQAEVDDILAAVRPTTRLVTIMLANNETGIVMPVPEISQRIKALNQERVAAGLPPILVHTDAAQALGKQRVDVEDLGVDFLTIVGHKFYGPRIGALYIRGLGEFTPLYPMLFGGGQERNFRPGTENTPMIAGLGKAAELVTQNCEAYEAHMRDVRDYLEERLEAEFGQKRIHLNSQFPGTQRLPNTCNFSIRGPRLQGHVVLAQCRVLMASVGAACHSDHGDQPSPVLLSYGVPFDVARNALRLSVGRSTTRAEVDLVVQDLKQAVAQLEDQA
Kind of test: proximity ligation; A549 cells, empty or expressing Myc-SEPHS2 or Myc-SCLY, fixed with 4% formaldehyde, permeabilised with 0.1% Triton X-100; primary antibodies to PRDX6 (rabbit polyclonal) and Myc (mouse monoclonal); Duolink kit; PLA foci counted.

B1: peroxiredoxin 6 (PRDX6), endogenous in A549 cells (protein, UniProt P30041 1-224)
chain: MPGGLLLGDVAPNFEANTTVGRIRFHDFLGDSWGILFSHPRDFTPVCTTELGRAAKLAPEFAKRNVKLIALSIDSVEDHLAWSKDINAYNCEEPTEKLPFPIIDDRNRELAILLGMLDPAEKDEKGMPVTARVVFVFGPDKKLKLSILYPATTGRNFDEILRVVISLQLTAEKRVATPVDWKDGDSVMVLPTIPEEEAKKLFPKGVFTKELPSGKKYLRYTPQP
As to B1, the binding result was “binds”.
